# Results from PubChem BioAssay AID493014 (National Center for Advancing Translational Sciences (NCATS), 2011).
# Values joined by “and” are separate entries in the source; they are usually repeats but may differ in a detail not shown here. Identical values can stand only once. In all, about 340,000 compounds went through this assay and about 170 (0.05%) were called active. The shares of active, inactive and inconclusive entries below differ from those in the screen. The call rests on the fitted dose curve; in most records, active means well fitted inhibition curve with a large enough effect in the signal ratio, with a control signal flat (not every such curve was filed as active); inconclusive means small, poorly fitted or top-dose-only effect, or effect the other way, or a change in a side signal; inactive means flat fitted curve, though single readings scatter; the % refers to the signal ratio. Potencies of inconclusive entries are doubtful fits and often do not repeat.
# Experiment: qHTS Assay to Find Inhibitors of Chronic Active B-Cell Receptor Signaling;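 on activity change, negative = inhibition: plate controls were basal doxycycline-induced cells for no effect and cells given 10 µM MG132 for full effect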
# Conditions: ABC-DLBCL IkBa-CBG/CBR reporter, luminescence ratio (green luciferase fused to IkBa over red control in TMD8 lymphoma cells), 4 h
# Summary of the method: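 TMD8 human ABC-DLBCL cells with doxycycline-inducible IκBα–green luciferase fusion and unfused red luciferase, in 0.5% FBS medium; compounds up to 46 uM, 4 h at 37C. Green/red luminescence ratio, filter-overlap corrected, fitted to concentration-response curves.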
# [1] = activity change, negative = inhibition: at 46.1 µM (top of the series)
# Potency means the concentration at half of the fitted maximal effect.
compound,measurement,setting,value
COCCCn1c(=N)c(C(=O)NCC2CCCO2)cc2c(=O)n3ccccc3nc21 (stereo not drawn),"activity change, negative = inhibition",[1],inactive
CCc1cccc(NC(=O)CN(C)S(=O)(=O)c2cccc3cccnc23)c1,Potency,[1],"inconclusive: 4.47 µM [falling, partial curve, poor fit]"
COc1ccc(-c2ccc(=O)n(Cc3ccc([N+](=O)[O-])cc3)n2)cc1,Potency,[1],"inconclusive: 4.47 µM [falling, partial curve, poor fit]"
CC1CC(C)CN(C(=O)CSCC(=O)Nc2nc(-c3cccs3)cs2)C1 (stereo not drawn),"activity change, negative = inhibition",[1],inconclusive: -17.8%
Nc1ccc(C(=O)O)c(O)c1,"activity change, negative = inhibition",[1],inconclusive: -10.7%
same,"activity change, negative = inhibition",at 46.1 µM (top of the series),inactive: -1.4% and inactive: 0.622% and inactive: -16%
NS(=O)(=O)c1ccc(CCNCc2cccnc2)cc1,"activity change, negative = inhibition",[1],inconclusive: 0.132%
O=c1c(Cl)c(N2CCOCC2)cnn1-c1nc2ccccc2[nH]1,Potency,[1],"inconclusive: 25.1 µM [falling, single point]"
C=CCOc1c(CNn2cn[nH]c2=S)cccc1OC,"activity change, negative = inhibition",[1],inconclusive: 11.5%
O/N=C(/c1ccccc1)c1cc2cc(Br)cc(Br)c2o1,"activity change, negative = inhibition",[1],inconclusive: 10%
Cc1ccc(/C=C/c2nc3ccccc3[nH]2)o1,Potency,[1],"inconclusive: 17.8 µM [falling, partial curve]"
CC(=O)N1c2ccc(S(=O)(=O)N3CCC(C(=O)Nc4cc(C)ccn4)CC3)cc2CC1C (stereo not drawn),"activity change, negative = inhibition",[1],inactive
COCCn1c(C)cc(C(=O)COc2cccnc2[N+](=O)[O-])c1C,Potency,[1],"inconclusive: 15.8 µM [falling, partial curve, poor fit]"
O=C(CN1C(=O)CCC1=O)Nc1nc(-c2ccc(Cl)s2)cs1,"activity change, negative = inhibition",[1],inconclusive: -0.524%
FC(F)C(F)(F)C(F)(F)C(F)(F)c1cc(-c2ccccc2)n[nH]1,"activity change, negative = inhibition",[1],inconclusive: 11.1%
C[C@H](CO)N1C[C@H](C)[C@@H](CN(C)Cc2ccc(-c3ccccc3)cc2)Oc2c(NS(=O)(=O)c3ccc(F)cc3)cccc2C1=O,"activity change, negative = inhibition",[1],inconclusive: 0.114%
COC(=O)c1sccc1NC(=O)COc1ccc(Cl)cc1,Potency,[1],"inconclusive: 7.31 µM [falling, partial curve]"
Cc1cs/c(=N/C(=S)Nc2ccccc2)n1C,Potency,[1],"inconclusive: 18.4 µM [falling, partial curve]"
Cc1ccccc1Oc1cc(NC(=O)CCCn2nc(C)c([N+](=O)[O-])c2C)cc([N+](=O)[O-])c1,"activity change, negative = inhibition",[1],inconclusive: -2.1%
CSCCCNC(=S)N1CCN(S(=O)(=O)c2cccc(C(F)(F)F)c2)CC1,"activity change, negative = inhibition",[1],inactive
Nc1[nH]nc2nc3ccccc3cc12,"activity change, negative = inhibition",[1],inconclusive: -21.1%
O=C(NCCS(=O)(=O)NCc1ccc(F)cc1)c1ccccc1,"activity change, negative = inhibition",[1],inconclusive: 2.5%
CCOc1ccc(NS(=O)(=O)c2ccc3[nH]cc(C(=O)NCC4CCCO4)c(=O)c3c2)cc1 (stereo not drawn),"activity change, negative = inhibition",[1],inconclusive: -0.858%
COC(=O)c1ccccc1NC(=S)NC(=O)c1ccccc1F,Potency,[1],"inconclusive: 20.6 µM [falling, single point]"
O=C(O)c1ccc(NC2=C/C(=N/S(=O)(=O)c3ccccc3)c3ccccc3C2=O)cc1,"activity change, negative = inhibition",[1],inconclusive: 19.1%
COc1cc(SC)ccc1C(=O)Nc1ccc2c(c1)OCO2,"activity change, negative = inhibition",[1],inconclusive: -8.51%
CCOC(=O)N1CCN(Cc2nc(N)nc(Nc3ccc(OC)cc3)n2)CC1,"activity change, negative = inhibition",[1],inconclusive: 2.33%
Cc1ccc(Cn2c(=S)[nH]c3ccc(N4CCOCC4)cc3c2=O)o1,Potency,[1],"inconclusive: 0.731 µM [falling, full curve, poor fit]"
Cc1cccc(Cc2c(C)nc3nc(SCC(=O)NCc4ccco4)nn3c2C)c1,"activity change, negative = inhibition",[1],inconclusive: 7.85%
Cc1ccc(/C=C2\Sc3ccccc3C2=O)s1,Potency,[1],"inconclusive: 1.12 µM [falling, partial curve, poor fit]"
COc1ccc(Br)cc1CNc1ccccc1,"activity change, negative = inhibition",[1],inconclusive: 3.16%
O=C(NCCc1ccccc1)C(=O)NCC1CCCO1 (stereo not drawn),"activity change, negative = inhibition",[1],inconclusive: -1.2%
Cc1ccc(NCCC(=O)c2ccc(Cl)cc2)cc1C,"activity change, negative = inhibition",[1],inconclusive: -122%
CN(C)S(=O)(=O)c1ccc2nc(NC(=O)c3cccs3)sc2c1,Potency,[1],"inconclusive: 29.1 µM [falling, single point]"
FC(F)(F)c1cc(-c2ccccc2)nc(NCc2cccnc2)n1,"activity change, negative = inhibition",[1],inconclusive: 15.1%
O=C(COC(=O)c1cccc(C(=O)OCC(=O)c2ccc(Br)cc2)n1)c1ccc(Br)cc1,"activity change, negative = inhibition",[1],inconclusive: 2.85%
O=C1Nc2ccc(Cl)cc2[C@@](C#CC2CC2)(C(F)(F)F)O1,"activity change, negative = inhibition",[1],inconclusive: -38.8%
Clc1ccc(-n2nnnc2SCc2c(-c3ccccc3)nc3sccn23)cc1,"activity change, negative = inhibition",[1],inactive
NC(=O)COC(=O)[C@@H]1CC(O)CN1S(=O)(=O)c1ccc2c(c1)OCCO2 (stereo partly drawn),"activity change, negative = inhibition",[1],inconclusive: 3.25%
Cc1cccc([C@@H]2[C@@H]3C(=O)N(Cc4ccccc4)C(=O)[C@@H]3[C@]3(CC(C)C)C(=O)N(c4cccc(F)c4)C(=O)N23)c1,"activity change, negative = inhibition",[1],inconclusive: 1.23%
Cc1cccc2sc(NC(=O)C3c4ccccc4Oc4ccccc43)nc12,"activity change, negative = inhibition",[1],inconclusive: 9.57%
Cc1cc(C)cc(C(=O)N(NC(=O)Nc2ccc(Cl)cc2)C(C)(C)C)c1,"activity change, negative = inhibition",[1],inactive
COCC(C)n1c(SCC(=O)NC(=O)NCc2ccccc2)nc2ccccc2c1=O (stereo not drawn),"activity change, negative = inhibition",[1],inconclusive: -20.6%
O=C(N/N=C/c1sc(=O)n(-c2ccccc2)c1Cl)c1ccccc1,Potency,[1],"inconclusive: 25.9 µM [falling, partial curve, poor fit]"
O=C1NC2(CCCCCC2)N=C1c1ccc(F)cc1,"activity change, negative = inhibition",[1],inactive
CC1CCN(C2=C(NS(=O)(=O)c3ccccc3)C(=O)c3ccccc3C2=O)CC1,"activity change, negative = inhibition",[1],inconclusive: 25.7%
CCCCCC1CC(CC(=O)Nc2nncs2)C(=O)O1 (stereo not drawn),Potency,[1],"inconclusive: 0.0461 µM [falling, partial curve, poor fit]"
CN1CCN(C(=S)c2ccc(-c3cccc([N+](=O)[O-])c3)o2)CC1,"activity change, negative = inhibition",[1],inactive
CCc1ccc(/C=N\NC(=O)c2ccc(Br)o2)s1,Potency,[1],"inconclusive: 29.1 µM [falling, single point]"
O=C(N/N=C/c1cccc(C(F)(F)F)c1)c1ccccc1O,Potency,[1],"inconclusive: 31.6 µM [rising, partial curve]"
CNS(=O)(=O)c1cccc(C(=O)OCC(=O)/C=C2/N(C)c3ccccc3C2(C)C)c1,"activity change, negative = inhibition",[1],inactive
CCN(C[C@H]1N[C@@](CC)(C(=O)OC)[C@H]2C(=O)N(Cc3ccccc3)C(=O)[C@@H]12)S(=O)(=O)c1ccc(C(F)(F)F)cc1,"activity change, negative = inhibition",[1],inconclusive: -3.07%
COCCNC(=S)N/N=C/c1ccccc1C(=O)O,"activity change, negative = inhibition",[1],inactive
COCCCNC(=S)N/N=C/c1cccc(OC)c1O,"activity change, negative = inhibition",[1],inconclusive: -18.9%
CN(C)/C=C/C(=O)c1ccc(Oc2ccccc2)cc1,"activity change, negative = inhibition",[1],inconclusive: 8.75%
Cc1ccc(C(=O)COc2cccc(NC(=O)c3ccco3)c2)cc1,Potency,[1],"inconclusive: 2.31 µM [falling, partial curve, poor fit]"
O=C(Nc1ccc(Br)cc1)c1cccc(N2C(=O)C3C4CCC(C4)C3C2=O)c1 (stereo not drawn),"activity change, negative = inhibition",[1],inconclusive: -1.93%
Fc1ccc(-c2noc(-c3ccc4c(c3)CCO4)n2)cc1,"activity change, negative = inhibition",[1],inconclusive: 5.07%
CCOc1ccc(NC(=O)c2cccc3c2C(=O)N(CCOC)C3)cc1,"activity change, negative = inhibition",[1],inconclusive: 12.6%
CC1CCN(CCCCOc2ccccc2F)CC1,"activity change, negative = inhibition",[1],inconclusive: 6.31%
O=C1OC(Nc2nc(-c3ccc(F)cc3)cs2)c2ccccc21 (stereo not drawn),Potency,[1],"inconclusive: 12.6 µM [falling, single point]"
COc1ccc(S(=O)(=O)N2CCCCCC2)cc1C(=O)N(C)Cc1c(F)cccc1Cl,"activity change, negative = inhibition",[1],inconclusive: 2.46%
Cn1c(=O)c2c(nc(Oc3ccccc3Cl)n2C)n(C)c1=O,"activity change, negative = inhibition",[1],inconclusive: 0.818%
Nc1sc(-c2ccccc2)cc1-c1n[nH]c(=S)n1C1CCCCC1,"activity change, negative = inhibition",[1],inconclusive: -21%
O=C(Cc1c[nH]c2ccccc12)NCC(=O)Nc1ccc(F)c(F)c1F,Potency,[1],"inconclusive: 29.1 µM [falling, single point]"
Cc1oc(C)c2c(=O)ccc3c(c12)OC(N)=C(C#N)C3c1ccc(F)cc1 (stereo not drawn),"activity change, negative = inhibition",[1],inconclusive: 4.15%
COc1ccc(OC[C@@H](O)CNC(=O)c2cccc3c2C(=O)c2ccc(Cl)cc2S3(=O)=O)cc1,"activity change, negative = inhibition",[1],inconclusive: -4.54%
c1ccc(-c2ncc3c(ccc4ccccc43)n2)cc1,"activity change, negative = inhibition",[1],inconclusive: 3.99%
N#Cc1cccc(CS(=O)(=O)c2ccc(Cl)cc2)c1,"activity change, negative = inhibition",[1],inconclusive: 5.23%
COc1cccc(NC(=O)CSc2nc3c(oc4ccccc43)c(=O)[nH]2)c1,"activity change, negative = inhibition",[1],inconclusive: -8.7%
COc1ccc(NC(=O)CSc2nc3sc4c(c3c(=O)n2-c2ccc(OC)cc2)CCN(C)C4)cc1,"activity change, negative = inhibition",[1],inconclusive: -7.24%
CCC(=Cc1ccc(CC)cn1)CC,"activity change, negative = inhibition",[1],inconclusive: 0.524%
Cc1noc(C)c1COC(=O)c1ccccc1Sc1ccccc1C#N,Potency,[1],"inconclusive: 11.2 µM [falling, partial curve, poor fit]"
O=C1c2ccccc2C(Nc2ccc(Cl)cn2)N1Cc1ccccc1 (stereo not drawn),Potency,[1],"inconclusive: 2.06 µM [rising, partial curve, poor fit]"
CCCCc1ccc(NC(=S)N2CCCC2)cc1,"activity change, negative = inhibition",[1],inconclusive: 5.97%
Cc1ccc(NC(=O)CSCC(=O)Nc2nnc(C3CC3)s2)cc1,Potency,[1],"inconclusive: 18.4 µM [falling, partial curve, poor fit]"
CN(C)c1ccc(-c2c(-c3ccc4c(c3)OCO4)noc2-c2ccsc2)cn1,"activity change, negative = inhibition",[1],inactive
COc1cccc(/C=N/NC(N)=S)c1OS(=O)(=O)c1ccccc1,Potency,[1],"inconclusive: 9.2 µM [falling, partial curve]"
